The other results are listed elsewhere or left out. Most values lie at the level of the controls, where differences are scatter.

By UniProt entry, the sequences of proteins in these tests, tags left out. Where a name states a change or a piece, a line headed by the entry shows the natural chain unless it says otherwise.
UniProt P07602: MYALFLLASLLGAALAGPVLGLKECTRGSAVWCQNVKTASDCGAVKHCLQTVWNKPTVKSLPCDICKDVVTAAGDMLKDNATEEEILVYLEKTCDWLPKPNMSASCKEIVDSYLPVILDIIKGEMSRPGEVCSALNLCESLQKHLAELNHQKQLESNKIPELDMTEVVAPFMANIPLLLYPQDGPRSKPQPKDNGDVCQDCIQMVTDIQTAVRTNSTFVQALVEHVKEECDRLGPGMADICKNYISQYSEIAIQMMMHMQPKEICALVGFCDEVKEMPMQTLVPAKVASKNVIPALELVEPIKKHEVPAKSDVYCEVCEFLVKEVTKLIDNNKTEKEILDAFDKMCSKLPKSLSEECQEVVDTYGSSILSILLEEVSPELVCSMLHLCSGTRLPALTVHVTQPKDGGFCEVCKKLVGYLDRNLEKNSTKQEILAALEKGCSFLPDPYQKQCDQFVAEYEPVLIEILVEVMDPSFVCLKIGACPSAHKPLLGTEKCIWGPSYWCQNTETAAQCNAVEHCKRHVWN
UniProt P12757: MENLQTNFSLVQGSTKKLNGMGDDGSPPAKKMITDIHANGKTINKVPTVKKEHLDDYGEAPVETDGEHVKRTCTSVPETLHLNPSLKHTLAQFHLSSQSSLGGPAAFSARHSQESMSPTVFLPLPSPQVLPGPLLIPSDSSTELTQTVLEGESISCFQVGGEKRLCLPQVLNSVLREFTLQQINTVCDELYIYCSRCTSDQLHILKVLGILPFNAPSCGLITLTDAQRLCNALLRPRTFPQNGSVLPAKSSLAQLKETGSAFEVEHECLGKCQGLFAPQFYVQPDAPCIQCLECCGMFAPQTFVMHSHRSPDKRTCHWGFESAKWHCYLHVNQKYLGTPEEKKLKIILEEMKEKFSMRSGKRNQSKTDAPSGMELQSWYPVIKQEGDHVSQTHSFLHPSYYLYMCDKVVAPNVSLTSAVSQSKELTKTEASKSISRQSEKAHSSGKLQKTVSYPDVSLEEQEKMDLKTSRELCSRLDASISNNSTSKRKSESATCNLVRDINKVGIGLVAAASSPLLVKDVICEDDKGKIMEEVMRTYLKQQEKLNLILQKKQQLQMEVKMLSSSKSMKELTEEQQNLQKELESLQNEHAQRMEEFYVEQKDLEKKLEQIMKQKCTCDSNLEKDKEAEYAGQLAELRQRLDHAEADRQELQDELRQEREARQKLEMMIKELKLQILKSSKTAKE
UniProt P06730, whole entry: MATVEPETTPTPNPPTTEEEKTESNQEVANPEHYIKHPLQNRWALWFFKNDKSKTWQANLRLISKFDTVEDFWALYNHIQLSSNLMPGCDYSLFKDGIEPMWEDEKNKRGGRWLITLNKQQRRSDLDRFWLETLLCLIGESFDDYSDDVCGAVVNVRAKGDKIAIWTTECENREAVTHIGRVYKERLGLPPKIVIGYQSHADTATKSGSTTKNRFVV
UniProt P08559, whole entry: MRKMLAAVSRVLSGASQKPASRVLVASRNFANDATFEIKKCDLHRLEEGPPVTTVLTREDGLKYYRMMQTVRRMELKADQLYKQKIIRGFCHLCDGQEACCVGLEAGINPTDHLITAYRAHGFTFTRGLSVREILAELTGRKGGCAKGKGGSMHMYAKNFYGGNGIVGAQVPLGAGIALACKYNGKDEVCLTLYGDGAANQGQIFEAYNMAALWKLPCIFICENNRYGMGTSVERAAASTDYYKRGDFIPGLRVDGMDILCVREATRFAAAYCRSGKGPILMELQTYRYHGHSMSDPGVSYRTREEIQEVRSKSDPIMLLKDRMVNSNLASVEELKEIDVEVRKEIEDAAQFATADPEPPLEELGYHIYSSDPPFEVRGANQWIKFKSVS
UniProt P01106: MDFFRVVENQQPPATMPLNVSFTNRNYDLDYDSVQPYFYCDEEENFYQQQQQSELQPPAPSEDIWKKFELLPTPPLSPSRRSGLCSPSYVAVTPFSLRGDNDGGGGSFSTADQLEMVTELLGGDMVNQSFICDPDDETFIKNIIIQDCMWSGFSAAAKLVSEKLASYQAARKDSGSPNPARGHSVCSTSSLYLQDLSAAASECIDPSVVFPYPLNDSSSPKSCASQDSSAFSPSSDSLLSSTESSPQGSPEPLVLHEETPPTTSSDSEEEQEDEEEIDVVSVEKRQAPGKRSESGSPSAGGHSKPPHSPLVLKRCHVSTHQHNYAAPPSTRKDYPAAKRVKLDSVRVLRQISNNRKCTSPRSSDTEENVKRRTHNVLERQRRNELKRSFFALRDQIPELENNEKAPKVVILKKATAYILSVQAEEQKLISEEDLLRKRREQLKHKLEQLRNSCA
UniProt P10646, whole entry: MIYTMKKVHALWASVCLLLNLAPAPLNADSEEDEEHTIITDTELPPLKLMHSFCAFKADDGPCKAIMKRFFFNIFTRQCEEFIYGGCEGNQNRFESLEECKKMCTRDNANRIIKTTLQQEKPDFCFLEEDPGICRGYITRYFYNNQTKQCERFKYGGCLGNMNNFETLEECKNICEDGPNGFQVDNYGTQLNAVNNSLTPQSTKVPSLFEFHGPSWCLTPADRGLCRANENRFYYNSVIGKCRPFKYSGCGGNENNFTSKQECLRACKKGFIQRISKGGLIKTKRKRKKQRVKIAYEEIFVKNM
UniProt P07108: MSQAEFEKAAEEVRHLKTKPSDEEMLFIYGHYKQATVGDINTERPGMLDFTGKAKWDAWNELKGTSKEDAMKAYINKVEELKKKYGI
UniProt P10515, whole entry: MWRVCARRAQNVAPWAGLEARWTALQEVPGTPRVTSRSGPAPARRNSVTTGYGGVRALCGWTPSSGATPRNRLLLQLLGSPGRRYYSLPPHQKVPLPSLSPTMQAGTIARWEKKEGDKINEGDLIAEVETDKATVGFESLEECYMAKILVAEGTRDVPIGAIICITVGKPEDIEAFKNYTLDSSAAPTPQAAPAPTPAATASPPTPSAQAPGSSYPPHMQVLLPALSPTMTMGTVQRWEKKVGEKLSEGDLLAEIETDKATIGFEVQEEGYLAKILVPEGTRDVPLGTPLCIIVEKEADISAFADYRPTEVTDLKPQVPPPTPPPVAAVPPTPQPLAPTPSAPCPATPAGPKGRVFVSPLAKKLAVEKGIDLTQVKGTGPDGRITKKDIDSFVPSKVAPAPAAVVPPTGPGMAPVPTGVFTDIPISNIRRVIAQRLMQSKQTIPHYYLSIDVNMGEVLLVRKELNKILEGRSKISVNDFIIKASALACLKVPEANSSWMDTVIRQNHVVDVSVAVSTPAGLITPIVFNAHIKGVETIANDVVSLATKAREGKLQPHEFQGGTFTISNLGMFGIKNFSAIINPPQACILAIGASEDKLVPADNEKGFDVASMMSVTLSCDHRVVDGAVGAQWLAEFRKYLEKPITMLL
UniProt P04350, whole entry: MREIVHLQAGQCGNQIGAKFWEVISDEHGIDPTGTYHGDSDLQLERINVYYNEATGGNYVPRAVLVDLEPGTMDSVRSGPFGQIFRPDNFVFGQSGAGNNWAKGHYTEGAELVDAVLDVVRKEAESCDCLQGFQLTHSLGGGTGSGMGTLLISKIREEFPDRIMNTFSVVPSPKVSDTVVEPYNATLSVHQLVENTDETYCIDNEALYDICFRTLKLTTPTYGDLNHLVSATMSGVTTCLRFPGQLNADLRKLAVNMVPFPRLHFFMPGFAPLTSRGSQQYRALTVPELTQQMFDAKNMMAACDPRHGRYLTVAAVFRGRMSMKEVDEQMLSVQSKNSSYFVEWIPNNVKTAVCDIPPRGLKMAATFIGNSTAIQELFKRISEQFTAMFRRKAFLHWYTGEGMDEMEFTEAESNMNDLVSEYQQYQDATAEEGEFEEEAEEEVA
UniProt P02792: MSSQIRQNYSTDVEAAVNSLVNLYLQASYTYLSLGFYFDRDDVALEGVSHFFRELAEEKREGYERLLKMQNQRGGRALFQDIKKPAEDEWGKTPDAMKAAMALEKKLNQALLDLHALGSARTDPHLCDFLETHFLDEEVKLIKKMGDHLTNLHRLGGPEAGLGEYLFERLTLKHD

Compound in the assay: CN[C@@H]1C[C@H]2O[C@@](C)([C@@H]1OC)n1c3ccccc3c3c4c(c5c6ccccc6n2c5c31)C(=O)NC4 [staurosporine]
Description: log2 fold change of tryptic peptide abundance, ligand vs vehicle (limited proteolysis) (log2 ratio); higher = more trypsin-susceptible (destabilized). The following applies: ligand concentration: 20 uM; sample: K562 cleared lysate; digestion: 4 min, 22 C (HT-PELSA RT4min, Orbitrap Astral).
As to “PSAP (peptide sequence: GSAVWCQNVK, peptide start residue: 28) (UniProt P07602)”, the log2 fold change is 0.119.

On to “SKIL (peptide sequence: YLGTPEEK, peptide start residue: 335) (UniProt P12757)”, for which the log2 fold change is -0.238.

In the case of “LDHA (peptide sequence: GEMMDLQHGSLFLR, peptide start residue: 60) (UniProt P00338)”, the log2 fold change was -0.372.

Turning to “EIF4E (peptide sequence: WALWFFKNDKSK, peptide start residue: 43) (UniProt P06730)”, the log2 fold change was 0.354.

Turning to “PDHA1 (peptide sequence: SGKGPILMELQTYR, peptide start residue: 275) (UniProt P08559)”, the log2 fold change came out at 0.753.

For “MYC (peptide sequence: KDSGSPNPAR, peptide start residue: 157) (UniProt P01106)”, the log2 fold change was -0.617.

Consider “TFPI (peptide sequence: IAYEEIFVK, peptide start residue: 294) (UniProt P10646)”, for which the log2 fold change is -0.0868.

For the target “DBI (peptide sequence: TKPSDEEMLFIYGHYK, peptide start residue: 18) (UniProt P07108)”, the log2 fold change amounted to 0.0038.

Turning to “DLAT (peptide sequence: VVDGAVGAQWLAEFRK, peptide start residue: 622) (UniProt P10515)”, the log2 fold change worked out at 0.379.

Turning to “UniProt P04350 (peptide sequence: MAATFIGNSTAIQELFKR, peptide start residue: 363)”, the log2 fold change came out at 0.465.

Consider “FTL (peptide sequence: KLNQALLDLHALGSAR, peptide start residue: 106) (UniProt P02792)”, for which the log2 fold change was determined as 0.213.

Source of the values: the supplement of paper PMC12819154, “High-throughput peptide-centric local stability assay extends protein–ligand identification to membrane proteins, tissues and bacteria” (Nature Structural & Molecular Biology, 2025).
